{"source": "patent US20040186052A1", "about": "“Cytomodulating peptides and methods for treating neurological disorders” (priority 2002, published 2004)", "origin": "cited, not measured here", "key": {"infarct": {"test_system": "infarct", "details": "following both focal and global ischemia; cited from earlier work"}, "nervous system trauma": {"test_system": "nervous system trauma", "details": "models of nervous system trauma; cited from earlier work"}, "ALS": {"test_system": "ALS", "details": "models of ALS; cited from earlier work"}, "Huntington's disease": {"test_system": "Huntington's disease", "details": "models of Huntington's disease; cited from earlier work"}}, "note": "At least one compound was matched to its structure with a doubt left.", "data": [{"smiles": "CN(C)c1ccc(O)c2c1C[C@H]1C[C@H]3[C@H](N(C)C)C(O)=C(C(N)=O)C(=O)[C@@]3(O)C(O)=C1C2=O", "note": "[minocycline]", "values": [{"measurement": "infarct size", "setting": "infarct", "result": "reduces"}, {"measurement": "microglial activation", "setting": "infarct", "result": "reduces"}, {"measurement": "neuroprotective activity", "setting": "nervous system trauma", "result": "exhibits neuroprotective activity"}, {"measurement": "neuroprotective activity", "setting": "ALS", "result": "exhibits neuroprotective activity"}, {"measurement": "neuroprotective activity", "setting": "Huntington's disease", "result": "exhibits neuroprotective activity"}]}]}
